Measured values from paper doi:10.1101/618819.
Results are given in words; binding and its absence hold for the method and conditions named. In cells and extracts the contact can be indirect. Some binding calls cover weakened binding; strength is not graded here. Tags and fused reporters may be left off the sequences shown.

Amino acid sequences for entries named in this document (tags omitted).
UniProt Q9FIJ0: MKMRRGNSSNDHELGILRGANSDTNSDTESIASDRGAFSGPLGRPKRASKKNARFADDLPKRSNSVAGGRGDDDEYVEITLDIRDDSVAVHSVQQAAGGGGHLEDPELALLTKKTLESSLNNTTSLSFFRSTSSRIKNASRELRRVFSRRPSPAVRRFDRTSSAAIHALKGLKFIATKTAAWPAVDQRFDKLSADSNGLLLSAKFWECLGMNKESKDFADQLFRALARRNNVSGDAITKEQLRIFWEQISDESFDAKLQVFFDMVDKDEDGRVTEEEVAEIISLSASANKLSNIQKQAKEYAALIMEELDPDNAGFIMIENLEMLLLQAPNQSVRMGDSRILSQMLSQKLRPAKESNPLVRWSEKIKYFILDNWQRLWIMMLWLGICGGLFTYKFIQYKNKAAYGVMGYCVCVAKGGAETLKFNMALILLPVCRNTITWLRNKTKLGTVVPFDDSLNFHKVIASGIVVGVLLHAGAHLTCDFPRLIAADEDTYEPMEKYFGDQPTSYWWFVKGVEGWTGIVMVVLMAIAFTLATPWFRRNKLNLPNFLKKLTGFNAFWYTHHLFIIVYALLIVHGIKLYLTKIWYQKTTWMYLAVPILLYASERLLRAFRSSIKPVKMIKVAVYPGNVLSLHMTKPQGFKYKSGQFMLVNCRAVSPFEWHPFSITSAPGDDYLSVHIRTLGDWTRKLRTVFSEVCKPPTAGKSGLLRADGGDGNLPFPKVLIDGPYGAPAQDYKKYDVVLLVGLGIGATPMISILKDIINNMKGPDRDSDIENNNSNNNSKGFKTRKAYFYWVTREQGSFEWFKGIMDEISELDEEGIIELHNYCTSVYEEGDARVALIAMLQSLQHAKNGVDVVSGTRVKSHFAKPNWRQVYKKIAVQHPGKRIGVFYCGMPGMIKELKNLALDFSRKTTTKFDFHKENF

Target: T1, CRK2-YFP (cysteine-rich receptor-like protein kinase CRK2 tagged with YFP) (Arabidopsis thaliana) (UniProt Q9CAL3)
T1 sequence: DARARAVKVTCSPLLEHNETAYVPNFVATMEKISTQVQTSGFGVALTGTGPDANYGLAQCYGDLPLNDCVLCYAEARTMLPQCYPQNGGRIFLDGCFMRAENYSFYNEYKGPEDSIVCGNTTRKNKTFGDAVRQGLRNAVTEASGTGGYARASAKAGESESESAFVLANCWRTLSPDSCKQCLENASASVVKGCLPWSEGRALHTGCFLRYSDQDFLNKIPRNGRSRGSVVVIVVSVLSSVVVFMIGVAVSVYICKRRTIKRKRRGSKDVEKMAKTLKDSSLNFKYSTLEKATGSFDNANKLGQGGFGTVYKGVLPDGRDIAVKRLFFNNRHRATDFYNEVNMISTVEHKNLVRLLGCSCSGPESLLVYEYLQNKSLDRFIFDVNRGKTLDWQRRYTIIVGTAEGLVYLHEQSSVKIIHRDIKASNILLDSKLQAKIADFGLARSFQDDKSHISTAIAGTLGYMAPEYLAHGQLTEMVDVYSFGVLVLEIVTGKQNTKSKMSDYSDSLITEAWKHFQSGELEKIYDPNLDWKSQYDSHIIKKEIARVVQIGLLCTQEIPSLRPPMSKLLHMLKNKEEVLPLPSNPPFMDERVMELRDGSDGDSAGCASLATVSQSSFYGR
Assay: co-IP

In the case of “FLAG-RBOHD (NADPH oxidase respiratory burst oxidase homolog D with FLAG tag) (from UniProt Q9FIJ0 1-921) (enzyme)”, the binding is reported as “binds”.
